Experimental findings from article PMC11984883, “ACAT1‐Mediated ME2 Acetylation Drives Chemoresistance in Ovarian Cancer by Linking Glutaminolysis to Lactate Production” (Advanced Science, 2025) are described below.

Amino acid sequences for entries named in this document (tags omitted). Residues count along the entry.
UniProt P23368, residues 19-584: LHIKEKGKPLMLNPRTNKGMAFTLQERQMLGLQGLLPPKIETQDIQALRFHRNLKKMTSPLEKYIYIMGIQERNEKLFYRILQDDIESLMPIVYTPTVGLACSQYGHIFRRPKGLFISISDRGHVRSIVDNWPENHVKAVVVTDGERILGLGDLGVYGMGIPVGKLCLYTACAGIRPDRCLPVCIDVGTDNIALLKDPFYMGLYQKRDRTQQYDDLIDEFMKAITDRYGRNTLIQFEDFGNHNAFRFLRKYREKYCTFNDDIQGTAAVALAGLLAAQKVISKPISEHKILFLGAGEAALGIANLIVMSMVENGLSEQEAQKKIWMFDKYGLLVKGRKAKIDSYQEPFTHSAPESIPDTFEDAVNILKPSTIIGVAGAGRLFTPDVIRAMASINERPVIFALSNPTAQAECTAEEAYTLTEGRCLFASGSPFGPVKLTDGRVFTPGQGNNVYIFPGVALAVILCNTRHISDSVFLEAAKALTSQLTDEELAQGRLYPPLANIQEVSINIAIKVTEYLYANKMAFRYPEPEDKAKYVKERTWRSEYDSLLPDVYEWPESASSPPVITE

Assay [1] deals with malic enzyme 2 (ME2), in cells (UniProt P23368). The experiment in a line: proximity ligation; in situ PLA with antibodies against the indicated proteins, confocal analysis, cancer cells cultured with high or low glucose.
Assay [2] shares this target. The assay is described as follows: co-IP; immunoprecipitation and western blot from cells cultured in a series of decreasing glucose concentrations (1X: basic medium glucose level), with a series of pyruvate concentrations plus cisplatin (1 µg/ml, 48 h), or with cisplatin for 48 h (Figure S5B).
The target in assay [3] is ME2-Halo (UniProt P23368). The experiment in a line: FRET or BRET; BRET in cancer cells co-transfected with ME2-Halo and ACAT1-Nluc or SIRT4-Nluc for 12 h, cultured in a series of decreasing glucose concentrations (Promega N1821). For orientation: BRET reads energy transfer from a luciferase to a nearby fluorophore.

Results are given in words; binding and its absence hold for the method and conditions named. In cells and extracts the contact can be indirect. Some results given as binding are weak or reduced against the parent protein; the word gives no strength. For part of these data: Where a sequence is shown, tags or fusion partners need not be part of it.

B1: acetyl-CoA acetyltransferase 1 (ACAT1), in cells (enzyme, UniProt P24752 34-427)
chain: VSKPTLKEVVIVSATRTPIGSFLGSLSLLPATKLGSIAIQGAIEKAGIPKEEVKEAYMGNVLQGGEGQAPTRQAVLGAGLPISTPCTTINKVCASGMKAIMMASQSLMCGHQDVMVAGGMESMSNVPYVMNRGSTPYGGVKLEDLIVKDGLTDVYNKIHMGSCAENTAKKLNIARNEQDAYAINSYTRSKAAWEAGKFGNEVIPVTVTVKGQPDVVVKEDEEYKRVDFSKVPKLKTVFQKENGTVTAANASTLNDGAAALVLMTADAAKRLNVTPLARIVAFADAAVEPIDFPIAPVYAASMVLKDVGLKKEDIAMWEVNEAFSLVVLANIKMLEIDPQKVNINGGAVSLGHPIGMSGARIVGHLTHALKQGEYGLASICNGGGGASAMLIQKL
On to B1, for which the binding entry in assay [1] and in assay [2] was “binds” each time.

B2: ACAT1-Nluc (enzyme, UniProt P24752 34-427)
chain: VSKPTLKEVVIVSATRTPIGSFLGSLSLLPATKLGSIAIQGAIEKAGIPKEEVKEAYMGNVLQGGEGQAPTRQAVLGAGLPISTPCTTINKVCASGMKAIMMASQSLMCGHQDVMVAGGMESMSNVPYVMNRGSTPYGGVKLEDLIVKDGLTDVYNKIHMGSCAENTAKKLNIARNEQDAYAINSYTRSKAAWEAGKFGNEVIPVTVTVKGQPDVVVKEDEEYKRVDFSKVPKLKTVFQKENGTVTAANASTLNDGAAALVLMTADAAKRLNVTPLARIVAFADAAVEPIDFPIAPVYAASMVLKDVGLKKEDIAMWEVNEAFSLVVLANIKMLEIDPQKVNINGGAVSLGHPIGMSGARIVGHLTHALKQGEYGLASICNGGGGASAMLIQKL
B2: the binding result in assay [3] is given as “binds”.

B3: SIRT4, in cells (enzyme, UniProt Q9Y6E7 29-314)
chain: IGLFVPASPPLDPEKVKELQRFITLSKRLLVMTGAGISTESGIPDYRSEKVGLYARTDRRPIQHGDFVRSAPIRQRYWARNFVGWPQFSSHQPNPAHWALSTWEKLGKLYWLVTQNVDALHTKAGSRRLTELHGCMDRVLCLDCGEQTPRGVLQERFQVLNPTWSAEAHGLAPDGDVFLSEEQVRSFQVPTCVQCGGHLKPDVVFFGDTVNPDKVDFVHKRVKEADSLLVVGSSLQVYSGYRFILTAWEKKLPIAILNIGPTRSDDLACLKLNSRCGELLPLIDPC
B3: the binding entry in assay [1] and in assay [2] was “binds” throughout.

B4: SIRT4-Nluc (enzyme, UniProt Q9Y6E7 29-314)
chain: IGLFVPASPPLDPEKVKELQRFITLSKRLLVMTGAGISTESGIPDYRSEKVGLYARTDRRPIQHGDFVRSAPIRQRYWARNFVGWPQFSSHQPNPAHWALSTWEKLGKLYWLVTQNVDALHTKAGSRRLTELHGCMDRVLCLDCGEQTPRGVLQERFQVLNPTWSAEAHGLAPDGDVFLSEEQVRSFQVPTCVQCGGHLKPDVVFFGDTVNPDKVDFVHKRVKEADSLLVVGSSLQVYSGYRFILTAWEKKLPIAILNIGPTRSDDLACLKLNSRCGELLPLIDPC
For the molecule B4, the binding entry in assay [3] is recorded as “binds”.
